No constants are given. Whether binding was seen depends on the method and setting. In cells and extracts the contact can be indirect. Some entries that bind do so weakly or less than the wild type. One block for each substance: values may come before it.
What was measured:
[1] = molecular target: PARP1 as used in the pulldown with NUDT16 deletion mutants (Supplemental Figure S7K) (UniProt P09874); assay: pull-down; pulldown of NUDT16 deletion mutants and PARP1 (Supplemental Figure S7K); which partner was immobilised is not given
[2] = molecular target: NUDT16, endogenous (human (endogenous in HEK293T, MCF10A and U2OS)) (UniProt Q96DE0); assay: co-IP; endogenous proteins, MCF10A lysate; IP with NUDT16 antibody or PARP1 antibody; cells untreated or IR 20 Gy, 1 h (interaction reduced); extracts with Benzonase nuclease (not affected)
[3] = molecular target: PARP1, endogenous (human (endogenous in MCF10A, U2OS and HEK293T)) (UniProt P09874); assay: proximity ligation; in situ PLA (Duolink) in fixed U2OS cells with NUDT16 and PARP1 antibodies; untreated or IR 10 Gy (reduced at 1 and 4 h, similar to untreated at 8 and 24 h)
[4] = molecular target: CtIP, endogenous (human (endogenous in HEK293T and U2OS)) (UniProt Q99708); assay: co-IP; endogenous proteins, HEK293T lysate; IP with NUDT16 antibody or CtIP antibody, blot for the other
[5] = molecular target: CtIP, endogenous (human (endogenous in HEK293T and U2OS)) (UniProt Q99708); assay: proximity ligation; in situ PLA (Duolink) in fixed U2OS cells with NUDT16 and CtIP antibodies; endogenous proteins
[6] = molecular target: PARP1, endogenous (human (endogenous in MCF10A, U2OS and HEK293T)) (UniProt P09874); assay: co-IP; endogenous proteins, MCF10A lysate; IP with NUDT16 antibody or PARP1 antibody; cells untreated or IR 20 Gy, 1 h (interaction reduced); extracts with Benzonase nuclease (not affected)
MBP-PARP1 fusion protein = MBP-PARP1 fusion protein (UniProt P09874); assay: pull-down; MBP-PARP1 fusion protein on beads (amylose resin), incubated with lysates of HEK293T cells expressing SFB-NUDT16 (WT or DDEEE5A); cells untreated, IR 20 Gy, or PARPi (20 μM olaparib, 3 h) before IR; only the target purified
[7] = molecular target: CtIP, endogenous (human (endogenous in HEK293T and U2OS)) (UniProt Q99708); assay: proximity ligation; in situ PLA in U2OS cells transfected with WT or mutant NUDT16, or with a CtIP RSS3A mutant (Supplemental Figure S4H-K)
[8] = molecular target: PARP1 wild type as used in the Co-IP with NUDT16 (Supplemental Figure S7I) (UniProt P09874); assay: co-IP; Co-IP of PARP1 constructs with NUDT16 (Supplemental Figure S7G, S7I); tags, cells and bait not given
[9] = molecular target: SFB-tagged CtIP (CtBP-interacting protein), wild type (UniProt Q99708); assay: co-IP; HEK293T transfected with SFB-CtIP and Myc-NUDT16; streptavidin beads; NTEN buffer (20 mM Tris-HCl pH 8.0, 100 mM NaCl, 1 mM EDTA, 0.5% Nonidet P-40), 3 h at 4°C; western blot

Sequences of proteins named here, by UniProt entry; tags and fusion partners are left off. A change or cut given only in a name is not applied to a line headed by its entry.
UniProt P09874: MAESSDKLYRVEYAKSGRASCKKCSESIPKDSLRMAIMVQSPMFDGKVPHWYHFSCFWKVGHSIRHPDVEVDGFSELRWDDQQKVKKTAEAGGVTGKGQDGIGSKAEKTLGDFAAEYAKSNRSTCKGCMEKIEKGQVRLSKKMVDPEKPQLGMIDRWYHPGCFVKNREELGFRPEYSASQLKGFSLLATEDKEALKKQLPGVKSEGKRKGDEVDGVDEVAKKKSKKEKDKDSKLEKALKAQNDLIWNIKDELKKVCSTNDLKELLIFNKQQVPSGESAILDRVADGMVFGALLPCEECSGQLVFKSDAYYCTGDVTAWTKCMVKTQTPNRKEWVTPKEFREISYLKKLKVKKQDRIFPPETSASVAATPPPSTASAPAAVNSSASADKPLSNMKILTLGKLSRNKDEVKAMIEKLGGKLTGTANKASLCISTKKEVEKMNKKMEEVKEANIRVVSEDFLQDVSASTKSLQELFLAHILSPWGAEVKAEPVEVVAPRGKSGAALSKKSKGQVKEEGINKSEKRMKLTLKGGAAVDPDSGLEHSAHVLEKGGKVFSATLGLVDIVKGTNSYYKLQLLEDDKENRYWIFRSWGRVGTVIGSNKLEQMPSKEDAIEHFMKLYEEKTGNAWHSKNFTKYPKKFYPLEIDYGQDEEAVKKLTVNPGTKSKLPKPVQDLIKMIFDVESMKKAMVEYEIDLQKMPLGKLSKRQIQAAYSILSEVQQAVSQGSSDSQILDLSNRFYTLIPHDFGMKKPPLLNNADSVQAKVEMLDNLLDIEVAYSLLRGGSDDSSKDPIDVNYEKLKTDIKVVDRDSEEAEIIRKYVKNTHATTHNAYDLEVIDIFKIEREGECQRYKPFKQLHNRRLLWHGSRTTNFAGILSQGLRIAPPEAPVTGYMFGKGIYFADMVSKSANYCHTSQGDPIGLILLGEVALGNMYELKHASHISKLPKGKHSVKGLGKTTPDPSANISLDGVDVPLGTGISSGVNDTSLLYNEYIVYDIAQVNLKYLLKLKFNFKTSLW
UniProt Q96DE0: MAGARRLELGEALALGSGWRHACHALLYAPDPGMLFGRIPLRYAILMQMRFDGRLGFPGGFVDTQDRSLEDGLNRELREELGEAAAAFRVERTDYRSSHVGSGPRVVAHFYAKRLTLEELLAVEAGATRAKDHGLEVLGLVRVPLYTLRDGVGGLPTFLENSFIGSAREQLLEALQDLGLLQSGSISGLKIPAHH
UniProt Q99708: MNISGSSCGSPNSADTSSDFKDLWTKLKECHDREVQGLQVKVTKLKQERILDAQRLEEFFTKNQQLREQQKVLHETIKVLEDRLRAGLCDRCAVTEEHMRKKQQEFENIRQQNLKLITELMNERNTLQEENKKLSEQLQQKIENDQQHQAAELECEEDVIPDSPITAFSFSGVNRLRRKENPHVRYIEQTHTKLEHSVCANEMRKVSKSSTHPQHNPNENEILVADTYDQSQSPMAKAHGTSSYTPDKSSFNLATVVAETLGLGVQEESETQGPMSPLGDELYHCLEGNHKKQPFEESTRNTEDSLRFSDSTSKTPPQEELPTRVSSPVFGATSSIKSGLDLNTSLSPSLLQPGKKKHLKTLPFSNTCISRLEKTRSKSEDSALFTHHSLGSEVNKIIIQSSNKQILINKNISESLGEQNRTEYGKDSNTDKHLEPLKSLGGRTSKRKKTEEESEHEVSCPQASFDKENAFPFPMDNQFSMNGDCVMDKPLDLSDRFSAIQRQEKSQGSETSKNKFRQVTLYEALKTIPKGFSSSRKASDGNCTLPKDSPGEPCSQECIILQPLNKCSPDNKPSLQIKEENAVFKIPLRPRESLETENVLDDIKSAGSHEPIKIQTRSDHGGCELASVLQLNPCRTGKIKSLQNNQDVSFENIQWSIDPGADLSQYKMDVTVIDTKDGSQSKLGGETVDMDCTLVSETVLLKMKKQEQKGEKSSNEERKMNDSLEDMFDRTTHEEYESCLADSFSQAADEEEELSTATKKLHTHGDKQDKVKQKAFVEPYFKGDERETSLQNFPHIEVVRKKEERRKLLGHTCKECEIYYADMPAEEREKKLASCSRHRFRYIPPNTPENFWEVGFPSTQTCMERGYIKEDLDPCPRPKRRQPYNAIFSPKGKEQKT

Substance: PARP1, endogenous (from UniProt P09874 1-1014)
- binding [2]: binds

Substance: NUDT16, endogenous (from UniProt Q96DE0 1-195)
- binding [3]: binds
- binding [4]: binds
- binding [5]: binds
- binding [6]: binds

Substance: SFB-tagged NUDT16, wild type (from UniProt Q96DE0 1-195)
- binding (MBP-PARP1 fusion protein): binds

Substance: WT NUDT16 transfected into U2OS cells for the PLA (from UniProt Q96DE0 1-195)
- binding [7]: binds

Substance: Myc-tagged NUDT16 (from UniProt Q96DE0 1-195)
- binding [9]: binds

More lines, now with the values ahead:

- binding [1]: binds
Substance: NUDT16 wild type as used in the pulldown with PARP1 (Supplemental Figure S7K) (from UniProt Q96DE0 1-195)

- binding [8]: binds
Substance: NUDT16 as used in the Co-IP with PARP1 constructs (Supplemental Figure S7G, S7I) (from UniProt Q96DE0 1-195)

From PMC11039996
